Our source for the binding values is publication doi:10.1101/2024.05.06.590709 (bioRxiv, 2024).

Amino acid sequences for entries named in this document (tags omitted).
UniProt P47996: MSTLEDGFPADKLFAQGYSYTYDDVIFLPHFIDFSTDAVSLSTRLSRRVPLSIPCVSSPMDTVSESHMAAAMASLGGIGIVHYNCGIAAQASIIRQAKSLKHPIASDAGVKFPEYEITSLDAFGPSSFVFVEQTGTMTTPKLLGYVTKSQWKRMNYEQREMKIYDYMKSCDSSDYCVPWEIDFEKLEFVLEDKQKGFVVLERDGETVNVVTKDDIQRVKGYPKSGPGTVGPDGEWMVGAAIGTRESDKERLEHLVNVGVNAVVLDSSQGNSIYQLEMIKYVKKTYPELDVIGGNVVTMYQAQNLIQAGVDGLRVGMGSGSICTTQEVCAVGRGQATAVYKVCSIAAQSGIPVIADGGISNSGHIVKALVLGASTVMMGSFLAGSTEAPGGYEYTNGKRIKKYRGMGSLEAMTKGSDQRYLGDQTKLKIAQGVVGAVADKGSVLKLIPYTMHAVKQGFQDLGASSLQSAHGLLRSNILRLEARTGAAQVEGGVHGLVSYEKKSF

Like-named read-outs stand apart in the source and are kept apart here. These are yes or no findings as the source states them, for the method shown. For some of these results: Binding seen in cells or lysates may run through a third protein. Some entries that bind do so weakly or less than the wild type. For some of these results: Tags and fused reporters may be left off the sequences shown.

Assay [1] has as its target T1, 6XHis-GST-ATG8A (Arabidopsis thaliana) (UniProt Q8LEM4).
T1 sequence: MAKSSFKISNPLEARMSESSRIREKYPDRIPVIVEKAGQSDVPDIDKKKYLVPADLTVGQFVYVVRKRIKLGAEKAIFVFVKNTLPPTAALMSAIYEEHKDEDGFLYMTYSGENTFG
In words: pull-down.

Assay [2] addresses T2, mCherry-ATG8A (Arabidopsis thaliana) (UniProt Q8LEM4).
T2 sequence: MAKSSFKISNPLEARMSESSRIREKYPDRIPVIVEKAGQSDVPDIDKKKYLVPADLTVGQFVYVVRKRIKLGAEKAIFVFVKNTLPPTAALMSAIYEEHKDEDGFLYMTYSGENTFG
In words: co-IP.

Assay [3] deals with T1, 6XHis-GST-ATG8A (Arabidopsis thaliana). Put plainly: pull-down. The source holds these as a separate data set.

For “His-MBP-IMPDH1 (from UniProt P47996 1-503) (enzyme)”, in assay [1], the binding result is given as “binds”.

Consider “NIT1^AIM1m (from UniProt P32961 1-346) (enzyme)”, for which the binding result in assay [1] was “binds”.

For the molecule “IMPDH1-Clover (from UniProt P47996 1-503) (enzyme)”, the binding result in assay [2] was “binds”.

B1: NIT1 WT (purified recombinant AtNIT1) (enzyme)
chain: MSSTKDMSTVQNATPFNGVAPSTTVRVTIVQSSTVYNDTPATIDKAEKYIVEAASKGAELVLFPEGFIGGYPRGFRFGLAVGVHNEEGRDEFRKYHASAIHVPGPEVARLADVARKNHVYLVMGAIEKEGYTLYCTVLFFSPQGQFLGKHRKLMPTSLERCIWGQGDGSTIPVYDTPIGKLGAAICWENRMPLYRTALYAKGIELYCAPTADGSKEWQSSMLHIAIEGGCFVLSACQFCQRKHFPDHPDYLFTDWYDDKEHDSIVSQGGSVIISPLGQVLAGPNFESEGLVTADIDLGDIARAKLYFDSVGHYSRPDVLHLTVNEHPRKSVTFVTKVEKAEDDSNK
modifications: RED-NHS 2nd Generation dye (in the MST only)
As for B1, the binding result in assay [3] is “binds”.
